Consider five substances from publication PMC9463443.

Chains of the proteins cited; added tags and fusions are not shown.
UniProt Q9H3R5: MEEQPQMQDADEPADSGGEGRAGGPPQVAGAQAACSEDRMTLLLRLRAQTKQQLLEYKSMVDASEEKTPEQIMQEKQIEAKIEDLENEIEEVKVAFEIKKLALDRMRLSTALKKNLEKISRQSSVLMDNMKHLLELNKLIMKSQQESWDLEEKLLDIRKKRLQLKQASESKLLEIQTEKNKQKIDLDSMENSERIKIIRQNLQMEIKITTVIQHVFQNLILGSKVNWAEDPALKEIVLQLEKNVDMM
UniProt Q9BS16: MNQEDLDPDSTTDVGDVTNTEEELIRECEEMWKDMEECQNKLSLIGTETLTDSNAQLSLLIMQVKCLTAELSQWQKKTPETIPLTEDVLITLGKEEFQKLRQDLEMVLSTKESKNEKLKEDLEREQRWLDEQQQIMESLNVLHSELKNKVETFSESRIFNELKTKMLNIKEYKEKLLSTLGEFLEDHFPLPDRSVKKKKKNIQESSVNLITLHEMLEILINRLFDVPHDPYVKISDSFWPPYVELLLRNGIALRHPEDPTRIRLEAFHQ
UniProt Q96H22: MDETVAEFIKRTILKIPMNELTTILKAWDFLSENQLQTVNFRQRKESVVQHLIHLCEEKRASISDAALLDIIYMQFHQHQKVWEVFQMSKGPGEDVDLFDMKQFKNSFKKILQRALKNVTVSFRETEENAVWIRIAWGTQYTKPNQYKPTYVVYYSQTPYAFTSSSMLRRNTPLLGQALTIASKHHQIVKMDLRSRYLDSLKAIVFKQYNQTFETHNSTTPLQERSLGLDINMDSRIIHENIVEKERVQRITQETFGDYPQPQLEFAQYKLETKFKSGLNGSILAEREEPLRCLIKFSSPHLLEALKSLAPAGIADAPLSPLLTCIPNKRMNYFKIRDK
UniProt Q92674: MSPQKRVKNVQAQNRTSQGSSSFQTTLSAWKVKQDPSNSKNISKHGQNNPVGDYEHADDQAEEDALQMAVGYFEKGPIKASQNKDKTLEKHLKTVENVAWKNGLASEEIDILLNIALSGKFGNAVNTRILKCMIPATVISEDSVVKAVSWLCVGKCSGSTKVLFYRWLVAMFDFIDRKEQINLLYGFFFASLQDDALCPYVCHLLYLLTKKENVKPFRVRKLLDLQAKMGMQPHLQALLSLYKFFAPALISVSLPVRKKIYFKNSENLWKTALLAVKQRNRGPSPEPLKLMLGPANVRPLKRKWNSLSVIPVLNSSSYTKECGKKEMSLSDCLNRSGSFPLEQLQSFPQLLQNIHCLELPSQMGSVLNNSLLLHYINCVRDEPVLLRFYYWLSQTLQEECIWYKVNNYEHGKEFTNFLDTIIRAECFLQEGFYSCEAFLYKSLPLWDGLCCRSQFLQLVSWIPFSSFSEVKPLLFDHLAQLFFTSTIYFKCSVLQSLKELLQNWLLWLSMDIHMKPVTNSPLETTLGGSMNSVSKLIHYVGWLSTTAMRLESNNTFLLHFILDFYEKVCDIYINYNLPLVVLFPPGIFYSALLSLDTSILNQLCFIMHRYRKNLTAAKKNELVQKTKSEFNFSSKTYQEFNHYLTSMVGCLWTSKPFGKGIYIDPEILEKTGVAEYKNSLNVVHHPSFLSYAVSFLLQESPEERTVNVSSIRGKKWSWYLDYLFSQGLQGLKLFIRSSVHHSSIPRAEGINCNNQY
UniProt Q71F23: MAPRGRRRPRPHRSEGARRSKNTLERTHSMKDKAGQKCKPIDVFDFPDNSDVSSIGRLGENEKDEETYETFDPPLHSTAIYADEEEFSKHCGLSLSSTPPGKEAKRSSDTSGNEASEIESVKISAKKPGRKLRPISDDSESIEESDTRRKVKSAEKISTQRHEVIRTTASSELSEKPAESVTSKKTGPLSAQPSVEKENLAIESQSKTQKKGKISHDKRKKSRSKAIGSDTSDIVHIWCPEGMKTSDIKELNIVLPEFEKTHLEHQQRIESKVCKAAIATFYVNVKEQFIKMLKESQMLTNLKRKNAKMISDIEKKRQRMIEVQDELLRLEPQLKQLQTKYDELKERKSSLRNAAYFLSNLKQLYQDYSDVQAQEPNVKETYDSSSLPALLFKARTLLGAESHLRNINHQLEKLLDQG
UniProt Q96BT3: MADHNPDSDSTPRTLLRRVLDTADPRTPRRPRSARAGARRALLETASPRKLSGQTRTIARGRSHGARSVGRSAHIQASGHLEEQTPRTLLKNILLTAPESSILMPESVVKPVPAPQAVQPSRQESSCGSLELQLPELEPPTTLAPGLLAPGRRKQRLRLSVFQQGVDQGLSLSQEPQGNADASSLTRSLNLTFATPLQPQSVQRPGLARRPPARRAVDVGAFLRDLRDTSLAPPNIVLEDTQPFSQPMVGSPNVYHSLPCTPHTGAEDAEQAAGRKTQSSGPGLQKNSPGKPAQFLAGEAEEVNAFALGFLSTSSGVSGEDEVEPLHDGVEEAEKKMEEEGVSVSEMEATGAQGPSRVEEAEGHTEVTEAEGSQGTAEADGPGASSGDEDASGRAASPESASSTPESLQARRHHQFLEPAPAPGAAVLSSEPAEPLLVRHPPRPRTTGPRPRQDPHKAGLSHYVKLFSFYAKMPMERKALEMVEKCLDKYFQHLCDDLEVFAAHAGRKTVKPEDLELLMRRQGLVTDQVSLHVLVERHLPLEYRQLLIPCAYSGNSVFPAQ
UniProt Q8N0S6: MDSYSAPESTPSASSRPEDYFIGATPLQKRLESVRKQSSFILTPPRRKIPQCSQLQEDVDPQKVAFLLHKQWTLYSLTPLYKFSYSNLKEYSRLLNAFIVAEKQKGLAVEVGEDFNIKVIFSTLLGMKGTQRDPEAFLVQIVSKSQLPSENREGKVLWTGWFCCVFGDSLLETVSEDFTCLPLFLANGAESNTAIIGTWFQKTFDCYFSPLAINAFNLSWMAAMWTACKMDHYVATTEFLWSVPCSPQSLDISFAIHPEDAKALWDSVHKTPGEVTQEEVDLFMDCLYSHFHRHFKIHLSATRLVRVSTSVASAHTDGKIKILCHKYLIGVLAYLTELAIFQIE
UniProt Q9NSP4: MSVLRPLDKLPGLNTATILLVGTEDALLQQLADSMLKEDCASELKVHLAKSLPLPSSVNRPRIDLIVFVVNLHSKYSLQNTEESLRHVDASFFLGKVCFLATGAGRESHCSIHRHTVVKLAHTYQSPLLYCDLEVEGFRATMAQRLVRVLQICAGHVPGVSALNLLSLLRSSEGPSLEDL
UniProt Q7L2Z9: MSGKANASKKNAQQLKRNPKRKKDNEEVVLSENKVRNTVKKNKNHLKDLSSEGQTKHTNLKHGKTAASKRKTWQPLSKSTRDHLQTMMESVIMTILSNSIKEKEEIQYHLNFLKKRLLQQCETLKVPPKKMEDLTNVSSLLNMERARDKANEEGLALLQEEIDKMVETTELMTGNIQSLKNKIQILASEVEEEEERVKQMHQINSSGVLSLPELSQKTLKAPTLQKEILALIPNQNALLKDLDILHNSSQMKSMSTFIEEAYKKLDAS
UniProt Q5EE01: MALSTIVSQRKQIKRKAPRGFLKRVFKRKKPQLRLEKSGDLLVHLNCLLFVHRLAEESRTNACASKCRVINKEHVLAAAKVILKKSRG

Results are given in words; binding and its absence hold for the method and conditions named. Some results given as binding are weak or reduced against the parent protein; the word gives no strength.

Among the targets are CENP-H (human) (UniProt Q9H3R5); CENP-K (human) (UniProt Q9BS16); CENP-N (human) (UniProt Q96H22); CENP-I (human) (UniProt Q92674); CENP-U (human) (UniProt Q71F23); CENP-T (human) (UniProt Q96BT3).
Assay in all cases: cryo-EM structure; CCAN reconstituted from purified sub-complexes with CENP-A nucleosome (147 bp Widom 601), purified on Superose 6 in 20 mM HEPES-Na pH 7.5, 300 mM NaCl, 0.5 mM TCEP, cross-linked with 5 mM BS3; 3.3 Å map; no particles with the nucleosome were seen; both purified

On to CENP-I (from UniProt Q92674 1-756), for which the binding result with CENP-H (human) and with CENP-K (human) was “binds” in each case.

As to “CENP-L (from UniProt Q8N0S6 1-344) (other; other documents disagree on this pair)”, the binding entry with CENP-N (human) is “binds”. As to CENP-M (from UniProt Q9NSP4 1-180), the binding result with CENP-I (human) and in the assay with CENP-K (human) was “binds” each time. As to CENP-Q (from UniProt Q7L2Z9 1-268), in the assay with CENP-U (human), the binding result is reported as “binds”.

Regarding CENP-W (from UniProt Q5EE01 1-88), the binding result with CENP-T (human) is listed as “binds”.
